Test results published in patent US12522612B2, “PDE4 inhibitors, pharmaceutical compositions, and therapeutic applications” (BioTheryX, Inc., priority 2019, dated 2026).
Some entries share one result that the patent states for a list of compounds.

Tested on: PDE4D short isoform
Test: Protein degradation assay in A549 cells, western blot, PDE4D
Format: cell-based
Settings: 24 h treatment
Protocol: A549 cells were grown in RPMI 1640 media supplemented with 10% fetal bovine serum, streptomycin, and penicillin. The cells were plated in 6-well plates in the growth media. The next day, fresh growth media were replaced on the cells. The cells were then treated with a compound for 24 h at predetermined concentrations. Whole cell extracts were prepared using an immunoprecipitation (IP) lysis buffer. Briefly, the cells were washed once in PBS, and the cell pellets were resuspended in the IP lysis buffer and incubated for 15 min on ice. Cells debris was removed by centrifugation and the cleared whole cell lysates were transferred to new tubes for further analysis.
For a western blot analysis, the whole cell protein extracts were separated on 4-12% SDS-polyacrylamide gels, transferred to nitrocellulose, and probed with primary antibodies. Membranes were subsequently washed and probed with IRDYE® secondary antibodies. The signals were detected using an ODYSSEY® Imaging System. The antibodies used in the assay included anti-PDE4B antibody; anti-PDE4D antibodies (top, bottom, and short isoform); β-actin mouse monoclonal antibody; IRDYE® 680RD goat anti-rabbit antibody; and IRDYE® 800CW goat anti-mouse antibody. Compounds B2 to B4, B18, B49 to B52, B76, B77, B79, B81 to B83, B88, B89, and B91 were determined to be able to degradate PDE4B as high as about 50% relative to DMSO.

| Compound | PDE4D (in particular PDE4D short isoform) degradation relative to DMSO |
| --- | --- |
| O=C1CCC(N2Cc3c(cc(F)cc3C3CCN(CCCCCCCN(C(=O)c4ccc(OC(F)F)c(OCC5CC5)c4)c4c(Cl)cncc4Cl)CC3)C2=O)C(=O)N1 (centres unmarked) [Compound B3, 3-(Cyclopropylmethoxy)-N-(3,5-dichloropyridin-4-yl)-4-(difluoromethoxy)-N-(7-(4-(2-(2,6-dioxopiperidin-3-yl)-6-fluoro-1-oxoisoindolin-4-yl)piperidin-1-yl)heptyl)benzamide] | ≤ 95% |
| COc1ccc(N2C(=O)c3ccccc3C2=O)cc1OCCCCCCCN1CCC(c2cc(F)cc3c2CN(C2CCC(=O)NC2=O)C3=O)CC1 (centres unmarked) [Compound B51, 2-(3-((7-(4-(2-(2,6-Dioxopiperidin-3-yl)-6-fluoro-1-oxoisoindolin-4-yl)piperidin-1-yl)heptyl)oxy)-4-methoxyphenyl)isoindoline-1,3-dione] | ≤ 95% |
| COc1ccc(N2C(=O)c3ccc(N)cc3C2=O)cc1OCCCCCCCN1CCC(c2cc(F)cc3c2CN(C2CCC(=O)NC2=O)C3=O)CC1 (centres unmarked) [Compound B52, 5-Amino-2-(3-((7-(4-(2-(2,6-dioxopiperidin-3-yl)-6-fluoro-1-oxoisoindolin-4-yl)piperidin-1-yl)heptyl)oxy)-4-methoxyphenyl)isoindoline-1,3-dione] | ≤ 95% |
| COc1ccc(N2C(=O)c3ccc(NCCCCCCCN4CCC(c5cc(F)cc6c5CN(C5CCC(=O)NC5=O)C6=O)CC4)cc3C2=O)cc1OC1CCCC1 (centres unmarked) [Compound B54, 2-(3-(Cyclopentyloxy)-4-methoxyphenyl)-5-((7-(4-(2-(2,6-dioxopiperidin-3-yl)-6-fluoro-1-oxoisoindolin-4-yl)piperidin-1-yl)heptyl)amino)isoindoline-1,3-dione] | ≤ 95% |
| Nc1ccc2c(c1)C(=O)N(c1ccc(OCCCCCCCN3CCC(c4cc(F)cc5c4CN(C4CCC(=O)NC4=O)C5=O)CC3)c(OC3CCCC3)c1)C2=O (centres unmarked) [Compound B58, 5-Amino-2-(3-(cyclopentyloxy)-4-((7-(4-(2-(2,6-dioxopiperidin-3-yl)-6-fluoro-1-oxoisoindolin-4-yl)piperidin-1-yl)heptyl)oxy)phenyl)isoindoline-1,3-dione] | ≤ 95% |
